For test [1], the target named is full-length Arabidopsis thaliana NAP1-Related Protein 2 (AtNRP2-His) (Arabidopsis thaliana) (UniProt Q8LC68). Description: SEC; analytical gel filtration, Superdex 200 10/300 GL, 4 °C, 20 mM Tris-HCl with 0.2, 0.5 or 2.0 M NaCl after dialysis into the same buffer; both purified. In general terms: SEC sorts molecules by how far they enter the pores of the column.
In test [2] the target is AtNRP2 NT/CT (AtNRP2 residues 14-223) (Arabidopsis thaliana) (UniProt Q8LC68). Description: crystal structure; AtNRP2 NT/CT, space group H32, 3.42 Å, two molecules in the asymmetric unit; molecular replacement with PDB 5DAY; both purified.
Test [3] has the same target. Description: SEC; analytical gel filtration, Superdex 200 10/300 GL, 4 °C, 20 mM Tris-HCl with 0.2, 0.5 or 2.0 M NaCl after dialysis into the same buffer; both purified.

These are yes or no findings as the source states them, for the method shown. Some results given as binding are weak or reduced against the parent protein; the word gives no strength. For part of these data: Where a sequence is shown, tags or fusion partners need not be part of it.

B1: full-length Arabidopsis thaliana NAP1-Related Protein 2 (AtNRP2-His) (protein, UniProt Q8LC68-2 1-256)
chain: MVTDKSKKAKTEEENVEQIDAELVLSIEKLQEIQDDLEKINEKASDEVLEVEQKYNVIRKPVYDKRNEIIKTIPDFWLTAFLSHPALGELLTEEDQKIFKYLSSLDVEDAKDVKSGYSITFSFNPNPFFEDGKLTKTFTFLEEGTTKITATPIKWKEGKGLANGVNHEKNGNKRALPEESFFTWFSDAQHKEDVEDEMQDEQVADIIKEDLWPNPLTYFNNDADEEDFDGDDDGDEEEKEGDSDEDDDEEDEVGEE
B1: the binding result in test [1] is given as “binds”.

B2: AtNRP2 NT/CT (AtNRP2 residues 14-223) (domain or fragment, UniProt Q8LC68-2 14-223)
chain: ENVEQIDAELVLSIEKLQEIQDDLEKINEKASDEVLEVEQKYNVIRKPVYDKRNEIIKTIPDFWLTAFLSHPALGELLTEEDQKIFKYLSSLDVEDAKDVKSGYSITFSFNPNPFFEDGKLTKTFTFLEEGTTKITATPIKWKEGKGLANGVNHEKNGNKRALPEESFFTWFSDAQHKEDVEDEMQDEQVADIIKEDLWPNPLTYFNNDA
For B2, the binding result in test [2] and in test [3] was “binds” each time.

The values are drawn from article PMC6630525.
